Here are results for 1 molecule from article PMC9653400.

Protein sequences, listed by entry. Tags and fused reporters are not part of them. Residues count along the entry.
UniProt Q8IY21: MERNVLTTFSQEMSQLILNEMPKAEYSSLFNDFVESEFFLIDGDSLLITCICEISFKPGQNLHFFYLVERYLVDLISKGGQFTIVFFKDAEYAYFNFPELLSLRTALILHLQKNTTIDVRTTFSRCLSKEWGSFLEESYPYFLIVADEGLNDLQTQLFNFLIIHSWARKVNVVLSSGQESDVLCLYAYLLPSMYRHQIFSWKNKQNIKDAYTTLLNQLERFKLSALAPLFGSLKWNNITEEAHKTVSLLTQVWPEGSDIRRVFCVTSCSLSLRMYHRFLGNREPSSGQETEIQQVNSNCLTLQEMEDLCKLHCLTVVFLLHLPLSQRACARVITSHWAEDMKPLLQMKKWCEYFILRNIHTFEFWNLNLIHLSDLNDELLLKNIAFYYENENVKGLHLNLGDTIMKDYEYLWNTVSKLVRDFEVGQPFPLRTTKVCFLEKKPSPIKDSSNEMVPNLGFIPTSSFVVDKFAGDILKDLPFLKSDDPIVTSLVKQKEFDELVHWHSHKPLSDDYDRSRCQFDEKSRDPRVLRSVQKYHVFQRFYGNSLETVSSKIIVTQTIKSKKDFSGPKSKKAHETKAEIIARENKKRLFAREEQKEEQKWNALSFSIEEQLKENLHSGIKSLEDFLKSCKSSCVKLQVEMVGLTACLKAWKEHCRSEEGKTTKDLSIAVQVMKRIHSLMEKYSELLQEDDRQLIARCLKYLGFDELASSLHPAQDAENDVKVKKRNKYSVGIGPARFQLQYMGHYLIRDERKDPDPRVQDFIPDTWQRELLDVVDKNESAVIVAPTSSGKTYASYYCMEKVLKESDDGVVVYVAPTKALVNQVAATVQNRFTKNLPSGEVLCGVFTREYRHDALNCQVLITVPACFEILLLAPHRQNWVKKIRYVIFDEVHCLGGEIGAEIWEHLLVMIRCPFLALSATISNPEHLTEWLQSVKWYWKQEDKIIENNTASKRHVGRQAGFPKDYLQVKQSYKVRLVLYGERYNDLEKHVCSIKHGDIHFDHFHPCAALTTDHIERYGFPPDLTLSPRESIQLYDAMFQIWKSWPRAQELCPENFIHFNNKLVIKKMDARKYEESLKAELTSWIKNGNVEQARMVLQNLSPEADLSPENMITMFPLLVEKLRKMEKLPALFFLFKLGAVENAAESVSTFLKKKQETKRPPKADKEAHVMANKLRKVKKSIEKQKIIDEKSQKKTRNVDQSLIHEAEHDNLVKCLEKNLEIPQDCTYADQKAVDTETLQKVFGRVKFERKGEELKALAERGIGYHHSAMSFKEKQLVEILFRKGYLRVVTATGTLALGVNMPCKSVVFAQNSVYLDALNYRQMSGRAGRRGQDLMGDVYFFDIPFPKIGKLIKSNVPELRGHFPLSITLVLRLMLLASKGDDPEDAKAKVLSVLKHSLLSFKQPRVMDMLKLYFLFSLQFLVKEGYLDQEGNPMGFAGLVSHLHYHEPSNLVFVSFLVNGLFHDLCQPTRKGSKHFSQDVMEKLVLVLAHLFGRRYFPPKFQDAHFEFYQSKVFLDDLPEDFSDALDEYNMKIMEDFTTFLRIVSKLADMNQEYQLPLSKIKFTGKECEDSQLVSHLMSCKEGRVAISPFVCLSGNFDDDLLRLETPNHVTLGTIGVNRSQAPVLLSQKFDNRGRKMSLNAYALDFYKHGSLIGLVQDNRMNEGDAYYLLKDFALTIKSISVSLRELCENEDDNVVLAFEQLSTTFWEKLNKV
UniProt Q9Y6N7, residues 26-1651: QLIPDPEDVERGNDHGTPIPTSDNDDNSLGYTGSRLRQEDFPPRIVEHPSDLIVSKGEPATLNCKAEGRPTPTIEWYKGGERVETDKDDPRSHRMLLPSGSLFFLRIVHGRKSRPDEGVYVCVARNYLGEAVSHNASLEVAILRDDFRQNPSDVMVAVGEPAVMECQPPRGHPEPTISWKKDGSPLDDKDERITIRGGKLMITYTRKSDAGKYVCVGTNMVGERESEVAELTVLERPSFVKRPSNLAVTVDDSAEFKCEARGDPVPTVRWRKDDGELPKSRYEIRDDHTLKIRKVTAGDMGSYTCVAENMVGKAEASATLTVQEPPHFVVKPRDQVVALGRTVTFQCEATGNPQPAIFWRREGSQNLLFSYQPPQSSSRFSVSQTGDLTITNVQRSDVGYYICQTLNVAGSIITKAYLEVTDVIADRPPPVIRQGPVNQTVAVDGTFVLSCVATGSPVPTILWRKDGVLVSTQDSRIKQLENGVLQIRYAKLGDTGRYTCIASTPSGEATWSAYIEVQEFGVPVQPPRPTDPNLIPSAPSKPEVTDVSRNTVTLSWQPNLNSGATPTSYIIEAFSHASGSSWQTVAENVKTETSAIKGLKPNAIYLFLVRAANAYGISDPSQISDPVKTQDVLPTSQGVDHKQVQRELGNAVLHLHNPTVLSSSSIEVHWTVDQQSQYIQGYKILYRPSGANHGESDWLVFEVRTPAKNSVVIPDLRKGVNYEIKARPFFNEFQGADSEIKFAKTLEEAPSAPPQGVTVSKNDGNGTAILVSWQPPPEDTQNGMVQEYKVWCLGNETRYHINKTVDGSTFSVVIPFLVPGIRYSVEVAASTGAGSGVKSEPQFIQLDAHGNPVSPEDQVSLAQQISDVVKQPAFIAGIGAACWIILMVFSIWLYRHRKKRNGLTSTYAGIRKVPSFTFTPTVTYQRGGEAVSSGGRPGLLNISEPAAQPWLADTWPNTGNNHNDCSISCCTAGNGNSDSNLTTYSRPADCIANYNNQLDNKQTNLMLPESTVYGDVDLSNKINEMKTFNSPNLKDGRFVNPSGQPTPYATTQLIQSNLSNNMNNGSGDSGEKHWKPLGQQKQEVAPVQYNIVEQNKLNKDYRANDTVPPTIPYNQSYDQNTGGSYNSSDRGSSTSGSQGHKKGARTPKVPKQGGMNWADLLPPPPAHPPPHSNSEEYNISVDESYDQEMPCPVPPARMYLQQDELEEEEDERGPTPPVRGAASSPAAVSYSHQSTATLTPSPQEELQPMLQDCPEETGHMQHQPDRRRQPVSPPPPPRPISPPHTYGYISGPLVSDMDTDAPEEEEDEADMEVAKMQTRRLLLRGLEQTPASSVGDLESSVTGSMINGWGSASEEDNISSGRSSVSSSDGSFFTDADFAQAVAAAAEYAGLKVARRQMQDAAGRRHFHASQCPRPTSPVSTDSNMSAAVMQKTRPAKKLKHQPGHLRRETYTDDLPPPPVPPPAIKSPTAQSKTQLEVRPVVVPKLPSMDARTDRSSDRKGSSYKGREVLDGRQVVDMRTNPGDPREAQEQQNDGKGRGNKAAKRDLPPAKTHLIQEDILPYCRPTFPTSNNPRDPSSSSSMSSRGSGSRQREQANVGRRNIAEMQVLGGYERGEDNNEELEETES
UniProt P42224: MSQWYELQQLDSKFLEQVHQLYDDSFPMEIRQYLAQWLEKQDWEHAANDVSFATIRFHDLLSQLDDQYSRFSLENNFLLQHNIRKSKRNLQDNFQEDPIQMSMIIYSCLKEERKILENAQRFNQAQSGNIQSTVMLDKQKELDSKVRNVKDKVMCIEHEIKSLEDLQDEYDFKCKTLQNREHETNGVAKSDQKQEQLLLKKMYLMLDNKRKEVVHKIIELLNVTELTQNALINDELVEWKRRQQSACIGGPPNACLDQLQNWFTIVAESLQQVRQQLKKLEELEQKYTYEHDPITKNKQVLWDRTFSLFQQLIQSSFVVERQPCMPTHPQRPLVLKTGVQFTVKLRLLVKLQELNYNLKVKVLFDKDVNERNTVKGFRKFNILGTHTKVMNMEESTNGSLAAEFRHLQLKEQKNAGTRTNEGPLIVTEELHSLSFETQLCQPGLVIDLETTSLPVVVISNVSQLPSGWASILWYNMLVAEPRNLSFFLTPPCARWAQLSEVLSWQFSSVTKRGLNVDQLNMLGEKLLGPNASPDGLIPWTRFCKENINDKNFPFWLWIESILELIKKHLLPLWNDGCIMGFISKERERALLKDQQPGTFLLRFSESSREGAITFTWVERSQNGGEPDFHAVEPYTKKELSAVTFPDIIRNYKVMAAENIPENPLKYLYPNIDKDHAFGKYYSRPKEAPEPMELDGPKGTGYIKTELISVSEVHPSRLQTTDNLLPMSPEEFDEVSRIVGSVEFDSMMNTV

Results are given in words; binding and its absence hold for the method and conditions named. In cells and extracts the contact can be indirect. Some entries that bind do so weakly or less than the wild type.

Assay [1] deals with T1, IFIT3 (human (endogenous in Flo-1)) (UniProt O14879).
T1 sequence: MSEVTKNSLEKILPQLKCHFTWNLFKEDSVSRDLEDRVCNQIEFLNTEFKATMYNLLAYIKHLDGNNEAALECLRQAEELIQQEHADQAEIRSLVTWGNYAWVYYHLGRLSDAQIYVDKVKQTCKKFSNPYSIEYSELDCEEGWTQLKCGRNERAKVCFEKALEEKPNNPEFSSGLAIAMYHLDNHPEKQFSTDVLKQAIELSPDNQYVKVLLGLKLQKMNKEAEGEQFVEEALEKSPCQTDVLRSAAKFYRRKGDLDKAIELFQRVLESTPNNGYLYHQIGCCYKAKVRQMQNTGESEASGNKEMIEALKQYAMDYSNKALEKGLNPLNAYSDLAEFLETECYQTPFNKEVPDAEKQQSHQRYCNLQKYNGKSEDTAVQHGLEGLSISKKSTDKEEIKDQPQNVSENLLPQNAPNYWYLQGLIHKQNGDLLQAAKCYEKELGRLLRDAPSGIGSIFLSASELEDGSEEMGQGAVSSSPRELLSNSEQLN
Nature of the assay: cross-linking; in-situ DSS cross-linking (0.5 mM, 5 min, 37 °C, in PBS) of Flo-1 cells treated with 10 ng/ml IFNα14 for 24 h (untreated cells run beside them); tryptic cross-linked peptides by LC-MS/MS, identified with SIM-XL (K-K, K-S, K-N-terminus).

The target of assay [2] is DDX60 (human (endogenous in Flo-1)) (UniProt Q8IY21). The description is as above.
The target of assay [3] is T2, OAS3 (human (endogenous in Flo-1)) (UniProt Q9Y6K5).
T2 sequence: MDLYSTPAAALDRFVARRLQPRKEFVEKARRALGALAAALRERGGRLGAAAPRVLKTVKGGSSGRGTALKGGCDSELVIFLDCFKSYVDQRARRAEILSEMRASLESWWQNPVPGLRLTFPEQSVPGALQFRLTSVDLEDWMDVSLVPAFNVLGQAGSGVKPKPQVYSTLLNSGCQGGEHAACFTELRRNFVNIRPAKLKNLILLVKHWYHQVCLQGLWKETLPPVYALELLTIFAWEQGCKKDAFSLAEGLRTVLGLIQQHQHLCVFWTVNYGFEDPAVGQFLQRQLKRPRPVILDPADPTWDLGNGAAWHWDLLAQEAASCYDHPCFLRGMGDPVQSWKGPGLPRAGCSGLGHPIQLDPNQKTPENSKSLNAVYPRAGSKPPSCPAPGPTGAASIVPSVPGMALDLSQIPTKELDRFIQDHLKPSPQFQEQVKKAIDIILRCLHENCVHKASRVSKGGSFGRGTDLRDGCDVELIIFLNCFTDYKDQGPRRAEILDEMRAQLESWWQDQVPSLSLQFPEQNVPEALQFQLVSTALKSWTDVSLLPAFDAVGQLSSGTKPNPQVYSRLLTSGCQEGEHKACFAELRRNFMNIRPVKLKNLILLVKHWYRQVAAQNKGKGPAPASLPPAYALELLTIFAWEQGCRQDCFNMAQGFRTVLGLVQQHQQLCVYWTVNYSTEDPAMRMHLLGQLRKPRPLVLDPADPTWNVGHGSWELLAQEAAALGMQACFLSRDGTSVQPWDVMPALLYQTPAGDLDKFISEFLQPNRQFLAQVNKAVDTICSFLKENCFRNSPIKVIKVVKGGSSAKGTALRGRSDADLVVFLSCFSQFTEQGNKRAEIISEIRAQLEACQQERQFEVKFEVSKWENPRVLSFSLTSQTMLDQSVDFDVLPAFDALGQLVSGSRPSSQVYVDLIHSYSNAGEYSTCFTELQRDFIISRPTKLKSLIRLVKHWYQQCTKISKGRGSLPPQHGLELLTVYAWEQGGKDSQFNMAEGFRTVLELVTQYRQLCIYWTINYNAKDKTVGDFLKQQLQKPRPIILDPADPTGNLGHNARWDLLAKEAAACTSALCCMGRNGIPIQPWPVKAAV
The description is as above.

Assay [4] concerns the target ROBO1 (human (endogenous in Flo-1)) (UniProt Q9Y6N7). The description is as above.
In assay [5] the target is STAT1 (human (endogenous in Flo-1)) (UniProt P42224). The description is as above.
For assay [6], the target named is T2, OAS3 (human (endogenous in Flo-1)). Nature of the assay: cross-linking; in-situ DSS cross-linking (0.5 mM, 5 min, 37 °C, in PBS) of untreated Flo-1 cells (no IFNα); LC-MS/MS, SIM-XL.
Assay [7] concerns the target ROBO1 (human (endogenous in Flo-1)) (UniProt Q9Y6N7). Described as above.
Assay [8] has as its target STAT1 (human (endogenous in Flo-1)) (UniProt P42224). The description is as above.

B1: MX1 (protein, UniProt P20591 1-662)
chain: MVVSEVDIAKADPAAASHPLLLNGDATVAQKNPGSVAENNLCSQYEEKVRPCIDLIDSLRALGVEQDLALPAIAVIGDQSSGKSSVLEALSGVALPRGSGIVTRCPLVLKLKKLVNEDKWRGKVSYQDYEIEISDASEVEKEINKAQNAIAGEGMGISHELITLEISSRDVPDLTLIDLPGITRVAVGNQPADIGYKIKTLIKKYIQRQETISLVVVPSNVDIATTEALSMAQEVDPEGDRTIGILTKPDLVDKGTEDKVVDVVRNLVFHLKKGYMIVKCRGQQEIQDQLSLSEALQREKIFFENHPYFRDLLEEGKATVPCLAEKLTSELITHICKSLPLLENQIKETHQRITEELQKYGVDIPEDENEKMFFLIDKVNAFNQDITALMQGEETVGEEDIRLFTRLRHEFHKWSTIIENNFQEGHKILSRKIQKFENQYRGRELPGFVNYRTFETIVKQQIKALEEPAVDMLHTVTDMVRLAFTDVSIKNFEEFFNLHRTAKSKIEDIRAEQEREGEKLIRLHFQMEQIVYCQDQVYRGALQKVREKELEEEKKKKSWDFGAFQSSSATDSSMEEIFQHLMAYHQEASKRISSHIPLIIQFFMLQTYGQQLQKAMLQLLQDKDTYSWLLKERSDTSDKRKFLKERLARLTQARRRLAQFPG
Consider B1, for which the binding entry was “binds” in assay [1]; “binds” in assay [2]; “binds” in assay [3]; “binds” in assay [4]; “binds” in assay [5]; “no binding (condition: untreated cells (without IFNα))” in assay [6]. The binding entry in assay [7] and in assay [8] was “no binding (condition: untreated cells (without IFNα))” throughout.
